Measurements: article PMC11610131
No constants are given. Whether binding was seen depends on the method and setting. In cells and extracts the contact can be indirect. Binding calls can cover weak binding; strength is not graded here.

Chains of the proteins cited; added tags and fusions are not shown. Lines headed by an entry give the natural chain unless they say otherwise; changes in a name come on top. Residues count along the entry.
UniProt Q9NZQ7, residues 19-290: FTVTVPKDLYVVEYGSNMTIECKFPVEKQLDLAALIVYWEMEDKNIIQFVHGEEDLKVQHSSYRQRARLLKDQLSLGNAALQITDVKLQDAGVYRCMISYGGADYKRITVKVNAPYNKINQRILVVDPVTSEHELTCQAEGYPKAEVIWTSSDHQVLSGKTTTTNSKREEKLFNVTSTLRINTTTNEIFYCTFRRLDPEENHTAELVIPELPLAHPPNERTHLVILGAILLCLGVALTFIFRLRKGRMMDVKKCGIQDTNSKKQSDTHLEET
UniProt P03956: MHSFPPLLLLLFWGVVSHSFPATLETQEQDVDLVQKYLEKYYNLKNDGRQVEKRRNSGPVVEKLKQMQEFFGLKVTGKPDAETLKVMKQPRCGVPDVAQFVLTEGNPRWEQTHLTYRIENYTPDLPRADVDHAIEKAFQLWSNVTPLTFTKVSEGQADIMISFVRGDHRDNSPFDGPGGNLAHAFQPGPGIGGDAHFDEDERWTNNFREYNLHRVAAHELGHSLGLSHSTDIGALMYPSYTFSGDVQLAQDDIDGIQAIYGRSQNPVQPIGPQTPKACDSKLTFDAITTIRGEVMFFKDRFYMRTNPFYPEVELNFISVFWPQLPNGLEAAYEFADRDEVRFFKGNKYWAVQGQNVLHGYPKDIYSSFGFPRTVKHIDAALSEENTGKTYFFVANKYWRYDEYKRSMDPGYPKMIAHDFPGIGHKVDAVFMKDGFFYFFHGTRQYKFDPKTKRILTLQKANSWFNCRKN

Target: Programmed cell death ligand 1 (human (endogenous in SAS and SCC15)) (UniProt Q9NZQ7)
Experiment: co-IP; total protein of SAS/SCC15 cells; immunoprecipitated with anti-MMP1 antibody and blotted with anti-PD-L1 antibody, and the reverse (IP anti-PD-L1, blot anti-MMP1)

## Matrix metalloproteinase-1 (from UniProt P03956) (enzyme)
  binding: binds
